# This is one part of the list.
# The chains behind the UniProt entries cited, without tags or fusion partners. Where a name states a change or a piece, a line headed by the entry shows the natural chain unless it says otherwise.
# UniProt Q14980: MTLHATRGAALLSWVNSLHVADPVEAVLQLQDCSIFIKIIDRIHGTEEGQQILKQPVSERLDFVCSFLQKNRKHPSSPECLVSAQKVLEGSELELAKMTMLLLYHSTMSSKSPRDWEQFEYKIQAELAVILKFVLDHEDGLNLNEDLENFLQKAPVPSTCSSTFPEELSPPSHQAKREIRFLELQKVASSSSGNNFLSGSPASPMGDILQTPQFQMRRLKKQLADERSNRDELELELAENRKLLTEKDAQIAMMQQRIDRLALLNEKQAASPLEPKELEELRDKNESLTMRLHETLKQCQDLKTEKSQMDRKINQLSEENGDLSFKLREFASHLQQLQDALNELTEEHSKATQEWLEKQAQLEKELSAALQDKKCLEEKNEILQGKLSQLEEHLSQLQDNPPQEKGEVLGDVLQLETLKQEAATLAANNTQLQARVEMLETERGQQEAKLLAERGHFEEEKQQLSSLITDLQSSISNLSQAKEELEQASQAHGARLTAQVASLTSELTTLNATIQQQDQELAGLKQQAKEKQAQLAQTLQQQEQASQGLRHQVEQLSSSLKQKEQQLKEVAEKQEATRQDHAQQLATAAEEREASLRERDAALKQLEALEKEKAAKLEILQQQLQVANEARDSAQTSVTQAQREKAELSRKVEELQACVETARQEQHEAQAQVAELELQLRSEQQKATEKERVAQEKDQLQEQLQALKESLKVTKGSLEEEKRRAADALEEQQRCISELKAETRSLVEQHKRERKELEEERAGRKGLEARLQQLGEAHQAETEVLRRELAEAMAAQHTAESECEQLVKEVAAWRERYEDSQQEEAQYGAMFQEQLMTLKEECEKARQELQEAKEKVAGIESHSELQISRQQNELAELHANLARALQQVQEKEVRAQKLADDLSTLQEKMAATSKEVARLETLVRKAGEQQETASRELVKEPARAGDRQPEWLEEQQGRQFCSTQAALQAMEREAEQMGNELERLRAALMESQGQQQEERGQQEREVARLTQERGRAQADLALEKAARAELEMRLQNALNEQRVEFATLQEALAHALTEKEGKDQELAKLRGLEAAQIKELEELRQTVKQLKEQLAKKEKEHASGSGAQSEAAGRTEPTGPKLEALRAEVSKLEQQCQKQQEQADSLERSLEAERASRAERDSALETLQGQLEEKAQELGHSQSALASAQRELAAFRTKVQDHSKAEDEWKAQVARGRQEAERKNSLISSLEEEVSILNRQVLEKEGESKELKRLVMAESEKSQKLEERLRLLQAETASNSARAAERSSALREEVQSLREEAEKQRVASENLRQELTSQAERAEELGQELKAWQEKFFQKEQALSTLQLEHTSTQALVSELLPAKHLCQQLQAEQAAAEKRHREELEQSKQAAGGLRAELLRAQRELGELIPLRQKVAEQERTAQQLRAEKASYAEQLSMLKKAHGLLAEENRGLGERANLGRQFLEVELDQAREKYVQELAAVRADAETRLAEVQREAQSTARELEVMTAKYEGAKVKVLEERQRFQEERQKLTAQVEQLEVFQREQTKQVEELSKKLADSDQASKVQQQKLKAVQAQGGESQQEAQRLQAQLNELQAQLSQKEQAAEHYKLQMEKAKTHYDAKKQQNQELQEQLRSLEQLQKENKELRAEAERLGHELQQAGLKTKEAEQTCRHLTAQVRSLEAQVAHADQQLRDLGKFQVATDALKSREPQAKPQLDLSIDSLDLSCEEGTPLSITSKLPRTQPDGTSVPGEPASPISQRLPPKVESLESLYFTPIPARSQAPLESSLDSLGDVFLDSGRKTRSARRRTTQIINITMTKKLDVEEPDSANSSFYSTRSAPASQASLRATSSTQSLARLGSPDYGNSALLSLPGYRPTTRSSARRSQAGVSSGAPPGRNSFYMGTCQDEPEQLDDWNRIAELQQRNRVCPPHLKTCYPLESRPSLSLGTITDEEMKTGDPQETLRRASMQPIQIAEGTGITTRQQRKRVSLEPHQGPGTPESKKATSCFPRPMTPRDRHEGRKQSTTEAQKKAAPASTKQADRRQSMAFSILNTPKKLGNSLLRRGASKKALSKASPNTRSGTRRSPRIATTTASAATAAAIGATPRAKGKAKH
# UniProt Q9GZU8: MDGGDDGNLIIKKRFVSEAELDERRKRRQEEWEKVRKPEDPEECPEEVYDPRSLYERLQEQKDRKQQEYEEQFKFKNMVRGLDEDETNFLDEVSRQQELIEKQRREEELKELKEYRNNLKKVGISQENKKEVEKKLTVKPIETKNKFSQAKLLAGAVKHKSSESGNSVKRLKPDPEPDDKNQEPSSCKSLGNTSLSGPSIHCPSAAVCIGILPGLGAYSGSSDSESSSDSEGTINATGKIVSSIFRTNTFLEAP
# UniProt Q8WUM0: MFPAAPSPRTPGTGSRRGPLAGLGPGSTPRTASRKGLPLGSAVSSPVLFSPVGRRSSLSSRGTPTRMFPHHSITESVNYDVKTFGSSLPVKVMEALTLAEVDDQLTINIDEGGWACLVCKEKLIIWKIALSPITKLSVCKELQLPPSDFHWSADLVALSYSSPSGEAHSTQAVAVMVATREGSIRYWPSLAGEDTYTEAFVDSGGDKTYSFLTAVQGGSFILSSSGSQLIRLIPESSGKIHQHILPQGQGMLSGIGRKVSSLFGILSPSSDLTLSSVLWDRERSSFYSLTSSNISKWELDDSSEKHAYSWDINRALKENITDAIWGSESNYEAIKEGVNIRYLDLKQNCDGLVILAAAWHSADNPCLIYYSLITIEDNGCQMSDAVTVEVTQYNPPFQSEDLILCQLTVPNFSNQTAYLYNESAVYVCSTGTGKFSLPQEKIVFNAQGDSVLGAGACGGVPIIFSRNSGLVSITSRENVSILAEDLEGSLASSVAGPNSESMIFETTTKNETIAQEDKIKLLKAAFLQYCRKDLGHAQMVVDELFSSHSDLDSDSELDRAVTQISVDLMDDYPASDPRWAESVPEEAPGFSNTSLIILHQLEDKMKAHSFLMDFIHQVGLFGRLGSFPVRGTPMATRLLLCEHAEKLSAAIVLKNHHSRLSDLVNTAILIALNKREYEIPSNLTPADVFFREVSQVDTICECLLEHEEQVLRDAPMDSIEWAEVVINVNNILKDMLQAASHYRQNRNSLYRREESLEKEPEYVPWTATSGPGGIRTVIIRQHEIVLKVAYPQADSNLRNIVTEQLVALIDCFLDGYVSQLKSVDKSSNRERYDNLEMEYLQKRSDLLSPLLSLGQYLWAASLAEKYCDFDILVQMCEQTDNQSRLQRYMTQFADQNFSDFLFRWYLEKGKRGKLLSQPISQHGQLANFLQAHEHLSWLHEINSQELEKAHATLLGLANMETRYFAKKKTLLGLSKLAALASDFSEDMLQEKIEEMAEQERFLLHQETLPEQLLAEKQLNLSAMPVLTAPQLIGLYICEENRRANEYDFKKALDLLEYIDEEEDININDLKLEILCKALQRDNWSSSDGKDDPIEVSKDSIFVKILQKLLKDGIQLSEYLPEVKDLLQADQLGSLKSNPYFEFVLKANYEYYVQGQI
# UniProt Q9BW91: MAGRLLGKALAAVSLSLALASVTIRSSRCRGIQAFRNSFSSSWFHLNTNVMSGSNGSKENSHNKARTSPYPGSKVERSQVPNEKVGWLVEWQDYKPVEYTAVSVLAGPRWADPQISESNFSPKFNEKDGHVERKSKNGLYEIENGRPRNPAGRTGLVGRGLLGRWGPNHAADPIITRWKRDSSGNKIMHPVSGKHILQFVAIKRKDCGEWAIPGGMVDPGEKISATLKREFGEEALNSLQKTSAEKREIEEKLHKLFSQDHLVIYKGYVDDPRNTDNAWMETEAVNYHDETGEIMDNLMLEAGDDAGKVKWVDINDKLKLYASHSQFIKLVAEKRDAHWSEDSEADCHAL
# UniProt Q8IXM6: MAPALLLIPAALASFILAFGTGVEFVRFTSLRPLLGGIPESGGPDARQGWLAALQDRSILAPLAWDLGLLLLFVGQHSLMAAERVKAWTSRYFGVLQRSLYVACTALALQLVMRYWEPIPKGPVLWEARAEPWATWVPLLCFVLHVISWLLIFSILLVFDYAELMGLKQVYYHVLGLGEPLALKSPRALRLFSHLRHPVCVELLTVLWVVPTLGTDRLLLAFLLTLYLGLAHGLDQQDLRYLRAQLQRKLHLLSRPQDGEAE
# UniProt O95182, whole entry: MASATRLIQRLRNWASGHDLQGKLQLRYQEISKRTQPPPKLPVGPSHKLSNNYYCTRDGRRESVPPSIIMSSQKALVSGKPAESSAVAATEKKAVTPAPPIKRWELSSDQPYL
# UniProt O95989: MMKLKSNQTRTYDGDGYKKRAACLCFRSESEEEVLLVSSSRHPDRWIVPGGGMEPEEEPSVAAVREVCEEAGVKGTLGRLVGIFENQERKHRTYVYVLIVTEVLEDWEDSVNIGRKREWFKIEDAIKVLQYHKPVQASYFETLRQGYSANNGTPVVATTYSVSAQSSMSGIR
# UniProt Q14978: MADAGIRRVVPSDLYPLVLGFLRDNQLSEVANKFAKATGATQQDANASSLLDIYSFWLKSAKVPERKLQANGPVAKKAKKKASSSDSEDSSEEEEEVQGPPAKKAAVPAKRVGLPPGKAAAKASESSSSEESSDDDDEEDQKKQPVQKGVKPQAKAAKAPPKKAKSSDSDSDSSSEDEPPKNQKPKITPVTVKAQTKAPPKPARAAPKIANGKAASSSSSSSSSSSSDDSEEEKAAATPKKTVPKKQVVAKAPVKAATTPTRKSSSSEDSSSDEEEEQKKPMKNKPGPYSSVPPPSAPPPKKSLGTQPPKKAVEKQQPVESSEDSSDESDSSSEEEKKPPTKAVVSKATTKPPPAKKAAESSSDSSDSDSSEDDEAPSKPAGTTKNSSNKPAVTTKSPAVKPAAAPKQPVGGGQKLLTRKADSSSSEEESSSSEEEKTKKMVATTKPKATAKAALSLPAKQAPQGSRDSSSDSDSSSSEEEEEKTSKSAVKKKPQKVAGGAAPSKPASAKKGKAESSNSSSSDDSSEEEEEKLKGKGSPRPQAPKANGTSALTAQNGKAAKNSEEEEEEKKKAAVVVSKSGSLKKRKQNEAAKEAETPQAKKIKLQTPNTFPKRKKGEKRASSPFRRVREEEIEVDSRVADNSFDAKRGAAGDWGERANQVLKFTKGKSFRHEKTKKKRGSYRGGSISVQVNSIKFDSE
# UniProt P19404, whole entry: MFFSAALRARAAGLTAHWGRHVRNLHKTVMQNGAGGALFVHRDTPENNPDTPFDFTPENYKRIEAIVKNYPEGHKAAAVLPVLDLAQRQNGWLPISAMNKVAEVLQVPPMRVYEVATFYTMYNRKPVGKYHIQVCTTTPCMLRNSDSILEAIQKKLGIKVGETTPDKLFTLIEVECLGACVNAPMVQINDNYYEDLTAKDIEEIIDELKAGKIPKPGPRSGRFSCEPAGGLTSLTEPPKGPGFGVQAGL
# UniProt Q8WVJ2: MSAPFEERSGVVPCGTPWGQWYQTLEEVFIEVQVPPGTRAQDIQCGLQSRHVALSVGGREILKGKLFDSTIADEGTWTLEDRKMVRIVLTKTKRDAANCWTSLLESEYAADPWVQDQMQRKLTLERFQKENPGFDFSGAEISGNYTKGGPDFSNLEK
# UniProt Q659A1: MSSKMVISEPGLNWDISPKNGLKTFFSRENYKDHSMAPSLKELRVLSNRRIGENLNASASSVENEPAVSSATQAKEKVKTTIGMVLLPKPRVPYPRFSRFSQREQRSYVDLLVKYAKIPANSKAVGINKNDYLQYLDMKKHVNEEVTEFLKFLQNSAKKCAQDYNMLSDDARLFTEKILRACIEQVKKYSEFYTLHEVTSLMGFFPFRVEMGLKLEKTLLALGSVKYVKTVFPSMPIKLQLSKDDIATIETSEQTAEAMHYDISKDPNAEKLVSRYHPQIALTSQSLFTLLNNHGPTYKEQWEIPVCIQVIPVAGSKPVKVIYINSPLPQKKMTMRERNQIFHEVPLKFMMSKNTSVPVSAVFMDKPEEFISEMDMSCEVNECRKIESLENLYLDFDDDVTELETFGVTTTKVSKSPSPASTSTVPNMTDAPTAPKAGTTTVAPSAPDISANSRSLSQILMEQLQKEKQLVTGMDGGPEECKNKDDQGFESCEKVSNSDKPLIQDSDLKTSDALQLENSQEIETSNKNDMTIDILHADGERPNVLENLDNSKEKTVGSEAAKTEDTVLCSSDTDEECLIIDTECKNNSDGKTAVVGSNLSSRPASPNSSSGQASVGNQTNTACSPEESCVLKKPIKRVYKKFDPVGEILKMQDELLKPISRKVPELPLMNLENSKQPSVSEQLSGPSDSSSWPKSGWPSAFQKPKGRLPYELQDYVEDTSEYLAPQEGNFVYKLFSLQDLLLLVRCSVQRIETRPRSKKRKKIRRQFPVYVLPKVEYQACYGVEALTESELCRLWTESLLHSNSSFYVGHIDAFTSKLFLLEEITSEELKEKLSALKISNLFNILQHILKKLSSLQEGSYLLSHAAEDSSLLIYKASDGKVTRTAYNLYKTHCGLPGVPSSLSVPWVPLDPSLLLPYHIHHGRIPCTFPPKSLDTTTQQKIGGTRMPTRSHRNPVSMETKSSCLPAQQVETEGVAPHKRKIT
# Compound: COc1ccc(Cn2ccc3cc(C)c(C(=O)NO)cc32)cc1
# Test: dose-dependent thermal stabilisation call (2D-TPP, DLPTP, 10% FDR) (binary (1 = stabilised)); higher = stabilised by the compound
# Conditions: system: HL-60 intact cells; concentration range 0.04-10 µM
# Method: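 2D thermal proteome profiling in intact HL-60 cells treated with BRD-3811 (0, 0.04, 0.29, 2, 10 uM) for 90 min at 37 C, then heated 3 min at one of 12 temperatures (42-63.9 C). Soluble protein was quantified by TMT10 MS. The value is the DLPTP call of the paper: dose-dependent thermal stabilisation over all temperatures at 10% FDR (F-test of a dose-response against a flat model); one experiment, one call per tested protein.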
row,Target,dose-dependent thermal stabilisation call
1,NHEDC2 (UniProt Q86UD5),inactive: 0
2,NOC4L (UniProt Q9BVI4),inactive: 0
3,NMI (UniProt Q13287),inactive: 0
4,NSUN2 (UniProt Q08J23),inactive: 0
5,NUMA1 (UniProt Q14980),inactive: 0
6,NCBP1 (UniProt Q09161),inactive: 0
7,NUB1 (UniProt Q9Y5A7),inactive: 0
8,NIP30 (UniProt Q9GZU8),inactive: 0
9,NUP98 (UniProt P52948),inactive: 0
10,NUP133 (UniProt Q8WUM0),inactive: 0
11,NUDT9 (UniProt Q9BW91),inactive: 0
12,NXF3 (UniProt Q9H4D5),inactive: 0
13,NRM (UniProt Q8IXM6),inactive: 0
14,NRF1 (UniProt Q16656),inactive: 0
15,NME1-NME2 (UniProt P15531),inactive: 0
16,NFXL1 (UniProt Q6ZNB6),inactive: 0
17,NDUFA7 (UniProt O95182),inactive: 0
18,NDUFA2 (UniProt O43678),inactive: 0

# Single values from the list.
# NUB1 (UniProt Q9Y5A7) | dose-dependent thermal stabilisation call: inactive: 0
# NRF1 (UniProt Q16656) | dose-dependent thermal stabilisation call: inactive: 0

# (list continues)

row,Target,dose-dependent thermal stabilisation call
1,NP (UniProt P00491),inactive: 0
2,NSF (UniProt P46459),inactive: 0
3,NIP7 (UniProt Q9Y221),inactive: 0
4,NT5C2 (UniProt P49902),inactive: 0
5,NDRG1 (UniProt Q92597),inactive: 0
6,NUDT3 (UniProt O95989),inactive: 0
7,NOLC1 (UniProt Q14978),inactive: 0
8,NAPA (UniProt P54920),inactive: 0
9,NCOA4 (UniProt Q13772),inactive: 0
10,NDUFV2 (UniProt P19404),inactive: 0
11,NUDCD2 (UniProt Q8WVJ2),inactive: 0
12,NARG2 (UniProt Q659A1),inactive: 0
13,NFX1 (UniProt Q12986),inactive: 0
14,NIBP (UniProt Q96Q05),inactive: 0
15,NCAPD3 (UniProt P42695),inactive: 0
16,NCKIPSD (UniProt Q9NZQ3),inactive: 0
17,NOMO2 (UniProt Q5JPE7),inactive: 0
18,NDUFV3 (UniProt P56181),inactive: 0
